Assay results reported in PubChem BioAssay AID220 (DTP/NCI, 2004).
The list is a part of this screen's results and no random one: it is rich in T/C values a quarter to a half above the control, in often repeated tests (any T/C) and in doses without a T/C. Further doses and runs are listed elsewhere. T/C: endpoint of the treated group in % of that of the vehicle group. Schedules are NCI's codes, read here as Q, the interval in days (D) or hours (H), X, the number of doses. Some T/C values are negative: the treated tumours shrank. Signs of the kind (2×) give the number of equal values in this list. Some entries were tested several times; the results are listed from low to high. Some T/C values are followed by the survivors on the day toxicity was checked, most often the fifth; where none is given, no animal had died by that day. Some doses have a count of surviving animals in place of a T/C: the source holds a T/C of zero for them, seemingly a mark for toxic or unscored doses. Counts of survivors are from the toxicity check (mostly the fifth day) where no day follows; animals may have died later.

System: CD8F1 mice, subcutaneous mammary adenocarcinoma, T/C%
Experiment: NCI In Vivo Anticancer Drug Screen. Data for tumor model Mammary Adenocarcinoma CD8F1 (subcutaneous) in CD8F1
Conditions: higher T/C = larger tumour
How it was run: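 Ratio of treated to vehicle-control outcome, based on either survival or tumor size, in mice bearing transplantable tumors given the test compound.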

`O=C1NC(c2ccccc2)N=C2Oc3ccccc3C=C12` (stereo not drawn) was tested, and the T/C (T/C endpoint: median tumor weight (est.), dose: 6.25 mg/kg/injection, schedule: Q07DX005 (ip), vehicle: saline with Tween-80, evaluated on day 30) was 133 % of control, the T/C (T/C endpoint: median tumor weight (est.), dose: 12.5 mg/kg/injection, schedule: Q07DX005 (ip), vehicle: saline with Tween-80, evaluated on day 30) was 146 % of control and the survivor count (T/C endpoint: median tumor weight (est.), dose: 200.0 mg/kg/injection, schedule: Q07DX005 (ip), vehicle: saline with Tween-80) was 0 of 10 on day 30.
`COc1ccc2c(NCCCCCCCCNc3c4ccccc4nc4cc(OC)ccc34)c3ccccc3nc2c1` was tested, and the T/C (T/C endpoint: median tumor weight (est.), dose: 1.87 mg/kg/injection, schedule: Q07DX005 (ip), vehicle: other, evaluated on day 30) was 135 % of control.
With `N[C@@H](Cc1ccc(N(CCCl)CCCl)cc1)C(=O)O` the survivor count (T/C endpoint: median tumor weight (est.), dose: 12.0 mg/kg/injection, schedule: Q07DX005 (ip), vehicle: suspension in saline) was 1 of 10 on day 30, the survivor count (T/C endpoint: median tumor weight (est.), dose: 32.0 mg/kg/injection, schedule: Q01DX001 (ip), vehicle: suspension in saline) was 3 of 10 on day 30 and 5 of 10 on day 32 and the survivor count (T/C endpoint: median tumor weight (est.), dose: 32.0 mg/kg/injection, schedule: Q07DX005 (ip), vehicle: suspension in saline) was 1 of 10 on day 32. For the same compound, the survivor count (T/C endpoint: median tumor weight (est.), dose: 64.0 mg/kg/injection, schedule: Q01DX001 (ip), vehicle: suspension in saline) was 0 of 10 on day 30 and 1 of 10 on day 32, the survivor count (T/C endpoint: median tumor weight (est.), dose: 128.0 mg/kg/injection, schedule: Q01DX001 (ip), vehicle: suspension in saline) was 0 of 10 on day 30 and 0 of 10 on day 32 and the survivor count (T/C endpoint: median tumor weight (est.), dose: 256.0 mg/kg/injection, schedule: Q01DX001 (ip), vehicle: suspension in saline) was 0 of 10 on day 30 and 0 of 10 on day 32. For the same compound, the T/C (T/C endpoint: median tumor weight change, dose: 5.3 mg/kg/injection, schedule: Q01DX001 (ip), vehicle: saline, evaluated on day 29) was 26 % of control, the T/C (T/C endpoint: median tumor weight change, dose: 5.3 mg/kg/injection, schedule: Q01DX001 (ip), vehicle: saline, evaluated on day 30) was 39 % of control and the T/C (T/C endpoint: median tumor weight change, dose: 5.3 mg/kg/injection, schedule: Q01DX001 (ip), vehicle: saline, evaluated on day 33) was -20 % of control (2×). For the same compound, the T/C (T/C endpoint: median tumor weight change, dose: 8.0 mg/kg/injection, schedule: Q01DX001 (ip), vehicle: saline, evaluated on day 29) was 4 % of control, the T/C (T/C endpoint: median tumor weight change, dose: 8.0 mg/kg/injection, schedule: Q01DX001 (ip), vehicle: saline, evaluated on day 30) was 29 % of control and the T/C (T/C endpoint: median tumor weight change, dose: 8.0 mg/kg/injection, schedule: Q01DX001 (ip), vehicle: saline, evaluated on day 33) was -51 and -27 % of control. The T/C (T/C endpoint: median tumor weight change, dose: 8.0 mg/kg/injection, schedule: Q01DX001 (ip), vehicle: saline, evaluated on day 39) was -22 % of control, the T/C (T/C endpoint: median tumor weight change, dose: 12.0 mg/kg/injection, schedule: Q01DX001 (ip), vehicle: saline, evaluated on day 29) was -12 % of control and the T/C (T/C endpoint: median tumor weight change, dose: 12.0 mg/kg/injection, schedule: Q01DX001 (ip), vehicle: saline, evaluated on day 30) was -2 % of control. The T/C (T/C endpoint: median tumor weight change, dose: 12.0 mg/kg/injection, schedule: Q01DX001 (ip), vehicle: saline, evaluated on day 33) was -68 and -65 % of control, the T/C (T/C endpoint: median tumor weight change, dose: 12.0 mg/kg/injection, schedule: Q01DX001 (ip), vehicle: saline, evaluated on day 39) was -5 % of control [9 of 10 alive on day 39] and the T/C (T/C endpoint: median tumor weight change, dose: 18.0 mg/kg/injection, schedule: Q01DX001 (ip), vehicle: saline, evaluated on day 29) was -48 % of control. For the same compound, the T/C (T/C endpoint: median tumor weight change, dose: 18.0 mg/kg/injection, schedule: Q01DX001 (ip), vehicle: saline, evaluated on day 30) was -36 % of control, the T/C (T/C endpoint: median tumor weight change, dose: 18.0 mg/kg/injection, schedule: Q01DX001 (ip), vehicle: saline, evaluated on day 33) was -89 [8 of 10 alive on day 30] and -80 % of control [9 of 10 alive on day 30] and the T/C (T/C endpoint: median tumor weight change, dose: 18.0 mg/kg/injection, schedule: Q01DX001 (ip), vehicle: saline, evaluated on day 39) was -27 % of control [9 of 10 alive on day 39]. For the same compound, the survivor count (T/C endpoint: median tumor weight change, dose: 40.0 mg/kg/injection, schedule: Q01DX001 (ip), vehicle: saline) was 3 of 10 on day 32, the survivor count (T/C endpoint: median tumor weight change, dose: 80.0 mg/kg/injection, schedule: Q01DX001 (ip), vehicle: saline) was 0 of 10 on day 32 and the survivor count (T/C endpoint: median tumor weight change, dose: 160.0 mg/kg/injection, schedule: Q01DX001 (ip), vehicle: saline) was 0 of 10 on day 32.
